Data reported in the supplement of paper PMC10849652.
The other results are listed elsewhere or left out.

Amino acid sequences for entries named in this document (tags omitted). A change or cut given only in a name is not applied to a line headed by its entry.
UniProt Q12769: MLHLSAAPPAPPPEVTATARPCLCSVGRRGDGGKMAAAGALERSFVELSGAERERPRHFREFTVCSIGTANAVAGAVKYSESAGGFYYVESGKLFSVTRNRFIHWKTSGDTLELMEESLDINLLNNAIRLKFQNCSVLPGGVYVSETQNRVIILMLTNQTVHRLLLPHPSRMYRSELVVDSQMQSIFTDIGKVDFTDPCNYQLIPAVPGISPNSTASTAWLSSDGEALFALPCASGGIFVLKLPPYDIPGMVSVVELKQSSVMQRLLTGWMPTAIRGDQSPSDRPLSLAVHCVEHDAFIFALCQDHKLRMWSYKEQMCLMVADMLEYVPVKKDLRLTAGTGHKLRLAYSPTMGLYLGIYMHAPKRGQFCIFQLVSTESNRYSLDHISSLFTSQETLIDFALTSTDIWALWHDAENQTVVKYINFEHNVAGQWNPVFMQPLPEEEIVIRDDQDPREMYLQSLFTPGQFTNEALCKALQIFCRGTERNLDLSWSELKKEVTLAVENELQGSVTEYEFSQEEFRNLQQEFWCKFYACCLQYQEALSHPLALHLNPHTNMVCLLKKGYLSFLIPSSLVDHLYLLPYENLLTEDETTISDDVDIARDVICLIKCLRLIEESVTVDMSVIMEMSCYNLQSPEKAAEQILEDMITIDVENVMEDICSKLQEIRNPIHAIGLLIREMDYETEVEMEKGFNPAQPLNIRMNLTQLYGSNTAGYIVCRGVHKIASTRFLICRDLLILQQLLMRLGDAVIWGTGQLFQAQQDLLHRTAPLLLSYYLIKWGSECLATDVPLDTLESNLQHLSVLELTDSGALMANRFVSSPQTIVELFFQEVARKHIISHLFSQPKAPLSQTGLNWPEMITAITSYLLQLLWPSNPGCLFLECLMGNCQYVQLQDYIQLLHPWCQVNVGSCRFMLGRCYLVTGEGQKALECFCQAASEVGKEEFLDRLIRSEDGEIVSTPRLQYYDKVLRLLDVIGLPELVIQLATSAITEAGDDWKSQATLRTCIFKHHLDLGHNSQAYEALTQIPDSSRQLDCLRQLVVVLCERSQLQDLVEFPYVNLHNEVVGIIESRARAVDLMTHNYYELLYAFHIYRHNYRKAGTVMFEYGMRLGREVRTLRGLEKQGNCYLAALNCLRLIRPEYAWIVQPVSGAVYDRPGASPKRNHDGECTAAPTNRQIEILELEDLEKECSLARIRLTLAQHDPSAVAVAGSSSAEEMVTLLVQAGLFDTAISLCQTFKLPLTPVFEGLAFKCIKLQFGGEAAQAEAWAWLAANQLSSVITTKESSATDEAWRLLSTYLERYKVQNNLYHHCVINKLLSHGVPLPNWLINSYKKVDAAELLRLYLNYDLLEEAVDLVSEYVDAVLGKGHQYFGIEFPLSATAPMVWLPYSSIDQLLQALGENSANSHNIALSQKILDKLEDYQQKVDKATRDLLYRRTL
UniProt P52948: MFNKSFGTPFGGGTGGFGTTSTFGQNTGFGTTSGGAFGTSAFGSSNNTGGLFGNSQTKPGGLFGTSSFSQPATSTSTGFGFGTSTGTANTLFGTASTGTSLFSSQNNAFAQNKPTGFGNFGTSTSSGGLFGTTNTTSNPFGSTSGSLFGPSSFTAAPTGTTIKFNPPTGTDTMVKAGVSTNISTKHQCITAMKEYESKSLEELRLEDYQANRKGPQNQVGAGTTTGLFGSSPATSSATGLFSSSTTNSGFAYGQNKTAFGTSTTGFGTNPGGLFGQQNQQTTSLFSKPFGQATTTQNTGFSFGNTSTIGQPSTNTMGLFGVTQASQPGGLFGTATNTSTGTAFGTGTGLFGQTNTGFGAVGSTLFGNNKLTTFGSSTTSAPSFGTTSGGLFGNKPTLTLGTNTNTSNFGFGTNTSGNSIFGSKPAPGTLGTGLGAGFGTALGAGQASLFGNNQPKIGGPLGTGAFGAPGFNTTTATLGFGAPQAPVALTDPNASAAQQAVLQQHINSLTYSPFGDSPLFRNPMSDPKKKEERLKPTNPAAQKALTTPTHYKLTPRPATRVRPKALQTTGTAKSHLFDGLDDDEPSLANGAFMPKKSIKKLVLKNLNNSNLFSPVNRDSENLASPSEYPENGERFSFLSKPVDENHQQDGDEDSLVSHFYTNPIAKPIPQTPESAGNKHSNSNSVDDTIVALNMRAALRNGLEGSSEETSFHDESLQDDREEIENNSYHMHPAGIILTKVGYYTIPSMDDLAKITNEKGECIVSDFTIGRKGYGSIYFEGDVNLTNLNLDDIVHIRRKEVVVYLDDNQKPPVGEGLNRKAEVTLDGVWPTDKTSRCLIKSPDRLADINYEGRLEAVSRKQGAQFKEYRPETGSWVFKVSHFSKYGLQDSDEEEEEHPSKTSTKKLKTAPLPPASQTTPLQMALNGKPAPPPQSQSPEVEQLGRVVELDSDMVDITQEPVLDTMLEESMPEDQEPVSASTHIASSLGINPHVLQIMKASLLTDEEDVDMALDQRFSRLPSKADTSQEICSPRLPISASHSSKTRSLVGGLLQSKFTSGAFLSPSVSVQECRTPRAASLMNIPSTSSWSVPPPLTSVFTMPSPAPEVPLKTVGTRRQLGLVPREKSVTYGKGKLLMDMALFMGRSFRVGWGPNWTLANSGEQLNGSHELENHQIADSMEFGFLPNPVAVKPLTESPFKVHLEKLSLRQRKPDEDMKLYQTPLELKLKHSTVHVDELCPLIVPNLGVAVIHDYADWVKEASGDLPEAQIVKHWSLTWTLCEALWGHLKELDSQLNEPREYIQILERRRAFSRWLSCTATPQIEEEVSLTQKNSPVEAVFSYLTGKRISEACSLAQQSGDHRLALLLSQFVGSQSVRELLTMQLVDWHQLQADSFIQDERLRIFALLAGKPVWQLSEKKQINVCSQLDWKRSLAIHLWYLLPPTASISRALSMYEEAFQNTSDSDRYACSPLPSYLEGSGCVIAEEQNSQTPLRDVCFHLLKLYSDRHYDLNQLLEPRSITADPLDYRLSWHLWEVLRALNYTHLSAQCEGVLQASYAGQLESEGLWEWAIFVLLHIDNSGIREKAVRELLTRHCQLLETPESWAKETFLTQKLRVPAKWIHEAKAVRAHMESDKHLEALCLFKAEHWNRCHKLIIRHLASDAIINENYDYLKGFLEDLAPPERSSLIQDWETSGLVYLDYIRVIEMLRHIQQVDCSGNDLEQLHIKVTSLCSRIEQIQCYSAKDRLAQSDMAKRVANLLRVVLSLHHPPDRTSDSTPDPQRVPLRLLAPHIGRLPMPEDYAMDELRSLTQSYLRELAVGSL
UniProt P22234: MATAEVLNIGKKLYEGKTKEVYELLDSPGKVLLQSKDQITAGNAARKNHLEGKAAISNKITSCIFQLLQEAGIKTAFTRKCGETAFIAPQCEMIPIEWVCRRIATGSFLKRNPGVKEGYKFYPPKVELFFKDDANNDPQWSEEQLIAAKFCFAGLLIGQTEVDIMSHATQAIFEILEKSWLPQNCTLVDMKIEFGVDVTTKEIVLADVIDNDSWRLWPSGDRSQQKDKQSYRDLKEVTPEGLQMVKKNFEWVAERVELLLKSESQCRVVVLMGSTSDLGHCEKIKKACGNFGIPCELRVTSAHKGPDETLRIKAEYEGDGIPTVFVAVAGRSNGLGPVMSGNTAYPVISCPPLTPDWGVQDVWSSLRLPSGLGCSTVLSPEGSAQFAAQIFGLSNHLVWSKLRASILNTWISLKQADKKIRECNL
UniProt Q96CV9, whole entry, looked up: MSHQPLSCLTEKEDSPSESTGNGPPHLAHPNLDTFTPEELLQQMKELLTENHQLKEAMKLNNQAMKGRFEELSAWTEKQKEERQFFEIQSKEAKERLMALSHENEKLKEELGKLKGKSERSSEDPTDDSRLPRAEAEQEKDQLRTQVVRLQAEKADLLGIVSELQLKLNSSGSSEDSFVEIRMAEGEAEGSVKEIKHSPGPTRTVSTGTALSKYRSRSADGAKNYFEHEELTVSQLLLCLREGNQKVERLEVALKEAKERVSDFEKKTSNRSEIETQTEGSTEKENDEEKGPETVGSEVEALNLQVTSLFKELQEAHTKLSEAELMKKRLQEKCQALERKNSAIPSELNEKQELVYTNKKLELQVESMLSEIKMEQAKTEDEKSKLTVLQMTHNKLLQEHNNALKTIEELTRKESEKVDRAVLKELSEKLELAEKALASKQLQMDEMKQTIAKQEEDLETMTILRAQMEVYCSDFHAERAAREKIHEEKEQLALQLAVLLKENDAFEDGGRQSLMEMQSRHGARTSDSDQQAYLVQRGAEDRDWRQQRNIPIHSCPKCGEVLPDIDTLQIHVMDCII
UniProt Q01804: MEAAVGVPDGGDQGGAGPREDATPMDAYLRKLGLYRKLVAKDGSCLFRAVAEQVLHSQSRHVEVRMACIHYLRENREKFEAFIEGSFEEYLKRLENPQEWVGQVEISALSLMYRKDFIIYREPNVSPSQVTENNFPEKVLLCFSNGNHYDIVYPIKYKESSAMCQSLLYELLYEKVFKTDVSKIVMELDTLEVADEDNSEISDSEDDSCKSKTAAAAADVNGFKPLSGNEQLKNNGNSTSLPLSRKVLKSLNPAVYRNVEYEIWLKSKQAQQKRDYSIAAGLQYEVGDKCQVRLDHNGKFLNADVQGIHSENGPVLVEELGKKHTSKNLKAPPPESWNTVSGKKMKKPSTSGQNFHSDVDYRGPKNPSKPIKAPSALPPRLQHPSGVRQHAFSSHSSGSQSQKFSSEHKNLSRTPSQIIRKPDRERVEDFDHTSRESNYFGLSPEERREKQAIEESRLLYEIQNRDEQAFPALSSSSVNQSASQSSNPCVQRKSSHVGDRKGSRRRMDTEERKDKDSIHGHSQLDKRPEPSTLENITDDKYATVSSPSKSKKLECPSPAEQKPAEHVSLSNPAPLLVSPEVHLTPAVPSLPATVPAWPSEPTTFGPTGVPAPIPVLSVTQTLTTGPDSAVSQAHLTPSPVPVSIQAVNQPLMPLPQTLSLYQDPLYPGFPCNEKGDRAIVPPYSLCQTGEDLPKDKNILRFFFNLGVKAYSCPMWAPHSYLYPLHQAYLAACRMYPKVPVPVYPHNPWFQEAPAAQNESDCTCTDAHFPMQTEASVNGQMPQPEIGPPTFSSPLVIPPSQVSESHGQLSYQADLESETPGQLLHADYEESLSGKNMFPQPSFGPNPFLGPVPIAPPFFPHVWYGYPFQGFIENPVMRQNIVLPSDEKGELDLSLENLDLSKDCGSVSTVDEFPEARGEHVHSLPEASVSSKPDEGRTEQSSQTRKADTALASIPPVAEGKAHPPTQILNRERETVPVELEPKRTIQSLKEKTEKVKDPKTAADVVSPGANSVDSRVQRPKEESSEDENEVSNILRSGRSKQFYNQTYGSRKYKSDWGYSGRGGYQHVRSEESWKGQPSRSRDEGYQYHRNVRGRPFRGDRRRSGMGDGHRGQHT

Assays:
Assay in all cases: log2 fold change, soluble protein after heating vs DMSO (PISA); higher = thermal stabilisation; K562 lysate, 10 uM; active = over 0.2 and 3.5 SD of the protein, either way, in both replicates (recomputed)
[1] = compound: C=CC(=O)N1CCC[C@@H](n2nc(-c3ccc(Oc4ccccc4)cc3)c3c(N)ncnc32)C1 [ibrutinib]
Method in brief: (§1)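 To prepare the extract, K562 pellets were dounce-homogenised in PBS pH 7.4 with 1 mM MgCl2, giving crude material at 1 mg/mL protein. This was treated with 10 μM compound for 30 min, then heated in aliquots for 3 min over 48°C-58°C before pooling and addition of NP-40 to 0.5% at 4°C. Centrifugation at 21,000xg for 90 min left soluble protein in the supernatant, which TMTpro 16plex LC-MS/MS quantified with equalised channel sums. Results are log-two fold changes in thermal stability compared with solvent controls, from duplicates.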

[2] = compound: CC(=O)c1cnc2ccc(-c3cc(Cl)c(O)c(Cl)c3)nc2c1N[C@H]1CC[C@H](CN(C)C)CC1
Method in brief: as §1

[3] = compound: CC(C)(C)Cn1c(N)nc2ccc(-c3[nH]c(C(C)(C)C)nc3-c3ccc(F)cc3)nc21 [ralimetinib]
Method in brief: as §1

[4] = compound: CC(C)(O)CC(=O)NCCn1ccc2ncnc(Nc3ccc(Oc4cccc(C(F)(F)F)c4)c(Cl)c3)c21
Method in brief: as §1

[5] = compound: CC(C)C1=C2N=C(C=C(N2N=C1)NCC3=CC=CC=C3)NCCCCCCN
Method in brief: as §1

[6] = compound: CC1=C(C(CC(=O)N1)C2=CC=C(C=C2)C(F)(F)F)C(=O)NC3=C(C=C4C(=C3)C=NN4)F
Method in brief: as §1

[7] = compound: CC1=C(C2=C(C=C1)C(=O)C3=CC=CC=C3N2CCCN)C
Method in brief: as §1

[8] = compound: CC1=C(C=C(C=C1)NC(=O)C2=CC(=CC=C2)C(C)(C)C#N)NC3=CC4=C(C=C3)N=CN(C4=O)C
Method in brief: as §1

[9] = compound: CC1=C(C=C(C=C1)NC(=O)C2=CC(=CC=C2)N(C)C)NC(=O)C3=CC=C(C=C3)O
Method in brief: as §1

[10] = compound: CC1=CC=C(C=C1)SC2=C3C=C(SC3=CN=C2)C(=O)N
Method in brief: as §1

[11] = compound: CCCS(=O)(=O)Nc1ccc(F)c(C(=O)c2c[nH]c3ncc(-c4ccc(Cl)cc4)cc23)c1F [vemurafenib]
Method in brief: as §1

[12] = compound: CCCS(=O)(=O)Nc1ccc(F)c(C(=O)c2c[nH]c3ncc(Cl)cc23)c1F
Method in brief: as §1

[13] = compound: CCN(CCCOc1ccc2c(Nc3cc(CC(=O)Nc4cccc(F)c4)[nH]n3)ncnc2c1)CCOP(=O)(O)O [barasertib]
Method in brief: as §1

[14] = compound: CC[C@@H]1C(=O)N(C)c2cnc(Nc3ccc(C(=O)NC4CCN(C)CC4)cc3OC)nc2N1C1CCCC1
Method in brief: as §1

[15] = compound: CC[C@@H]1C(=O)N(C)c2cnc(Nc3ccc(C(=O)N[C@H]4CC[C@H](N5CCN(CC6CC6)CC5)CC4)cc3OC)nc2N1C(C)C [volasertib]
Method in brief: as §1

[16] = compound: CCn1c(C(=O)N(C2CC2)C2CC2)cc2c3c(ncn3C)c(Nc3cc(C)n(C)n3)nc21
Method in brief: as §1

[17] = compound: CCn1cc(-c2ccnc3[nH]c(-c4cccc(CN(C)C)c4)cc23)c(-c2ccc(NC(=O)N(C)C)cc2)n1
Method in brief: as §1

[18] = compound: CN1CCC(CNc2ccc3ncc(-c4cccc(OC(F)(F)F)c4)n3n2)CC1
Method in brief: as §1

[19] = compound: CN1CCN(CCOc2cc(OC3CCOCC3)c3c(Nc4c(Cl)ccc5c4OCO5)ncnc3c2)CC1 [saracatinib]
Method in brief: as §1

[20] = compound: CN1CCN(c2nc(C3=C(c4c[nH]c5ccccc45)C(=O)NC3=O)c3ccccc3n2)CC1 [sotrastaurin]
Method in brief: as §1

Measured: log2 fold change

NUP160 (UniProt Q12769)
inactive: [1] 0.063 | [2] -0.007 | [3] 0.062 | [4] 0.017 | [5] -0.021 | [6] 0.01 | [7] 0.005 | [8] 0.012 | [9] -0.021 | [10] 0.001 | [11] -0.039 | [12] 0.02 | [13] 0.052 | [14] -0.106 | [15] -0.105 | [16] 0.043 | [17] 0.057 | [18] -0.058 | [19] 0.043 | [20] -0.01

NUP210 (UniProt Q8TEM1)
inactive: [1] -0.029 | [2] -0.01 | [3] -0.011 | [4] -0.075 | [5] -0.005 | [6] 0.024 | [7] -0.017 | [8] -0.005 | [9] -0.027 | [10] -0.012 | [11] -0.009 | [12] 0.048 | [13] 0.072 | [14] -0.004 | [15] 0.006 | [16] 0.036 | [17] 0.012 | [18] -0.015 | [19] 0.029 | [20] -0.004

NUP98 (UniProt P52948)
inactive: [1] -0.01 | [2] 0.047 | [3] 0.047 | [4] 0.022 | [5] -0.037 | [6] 0.034 | [7] 0.029 | [8] -0.022 | [9] 0.008 | [10] -0.017 | [11] 0.001 | [12] 0.035 | [13] 0.02 | [14] -0.005 | [15] -0.071 | [16] 0.031 | [17] -0.062 | [18] 0.019 | [19] 0.073 | [20] -0.005

PAICS (UniProt P22234)
inactive: [1] -0.003 | [2] 0.006 | [3] -0.008 | [4] -0.013 | [5] 0.011 | [6] -0.017 | [7] -0.003 | [8] -0.02 | [9] -0.019 | [10] -0.009 | [11] -0.007 | [12] 0.014 | [13] -0.029 | [14] 0.018 | [15] 0.026 | [16] -0.042 | [17] 0.015 | [18] 0.052 | [19] -0.033 | [20] -0.007

NUP188 (UniProt Q5SRE5)
inactive: [1] -0.026 | [2] 0.019 | [3] 0.041 | [4] -0.021 | [5] -0.028 | [6] -0.005 | [7] 0.035 | [8] -0.04 | [9] 0.042 | [10] -0.018 | [11] -0.006 | [12] -0.006 | [13] 0.074 | [14] -0.067 | [15] -0.077 | [16] 0.05 | [17] -0.031 | [18] -0.045 | [19] 0.029 | [20] 0.021

OXA1L (UniProt Q15070)
inactive: [1] 0 | [2] 0.034 | [3] -0.006 | [4] -0.05 | [5] -0.084 | [6] 0.039 | [7] 0.004 | [8] 0.024 | [9] 0.007 | [10] 0.059 | [11] -0.01 | [12] 0.001 | [13] -0.003 | [14] -0.04 | [15] 0 | [16] 0.016 | [17] -0.137 | [18] -0.022 | [19] -0.048 | [20] -0.012

OPTN (UniProt Q96CV9)
inactive: [1] -0.028 | [2] 0.029 | [3] 0.012 | [4] -0.001 | [5] -0.06 | [6] -0.008 | [7] -0.027 | [8] -0.001 | [9] -0.008 | [10] 0.018 | [11] -0.001 | [12] 0.031 | [13] 0.021 | [14] 0.043 | [15] -0.004 | [16] -0.024 | [17] -0.006 | [18] 0.009 | [19] 0.072 | [20] 0.025

OTUD4 (UniProt Q01804)
inactive: [1] 0.017 | [2] 0.042 | [3] 0.014 | [4] -0.025 | [5] 0.003 | [6] 0.018 | [7] -0.025 | [8] -0.009 | [9] 0.002 | [10] -0.01 | [11] 0.089 | [12] 0.034 | [13] 0.001 | [14] -0.002 | [15] -0.055 | [16] 0.011 | [17] -0.064 | [18] 0.018 | [19] 0.046 | [20] 0.065
